Article PMC6240029
No constants are given. Whether binding was seen depends on the method and setting. Binding seen in cells or lysates may run through a third protein. Some binding calls cover weakened binding; strength is not graded here.

The chains behind the UniProt entries cited, without tags or fusion partners.
UniProt Q61315: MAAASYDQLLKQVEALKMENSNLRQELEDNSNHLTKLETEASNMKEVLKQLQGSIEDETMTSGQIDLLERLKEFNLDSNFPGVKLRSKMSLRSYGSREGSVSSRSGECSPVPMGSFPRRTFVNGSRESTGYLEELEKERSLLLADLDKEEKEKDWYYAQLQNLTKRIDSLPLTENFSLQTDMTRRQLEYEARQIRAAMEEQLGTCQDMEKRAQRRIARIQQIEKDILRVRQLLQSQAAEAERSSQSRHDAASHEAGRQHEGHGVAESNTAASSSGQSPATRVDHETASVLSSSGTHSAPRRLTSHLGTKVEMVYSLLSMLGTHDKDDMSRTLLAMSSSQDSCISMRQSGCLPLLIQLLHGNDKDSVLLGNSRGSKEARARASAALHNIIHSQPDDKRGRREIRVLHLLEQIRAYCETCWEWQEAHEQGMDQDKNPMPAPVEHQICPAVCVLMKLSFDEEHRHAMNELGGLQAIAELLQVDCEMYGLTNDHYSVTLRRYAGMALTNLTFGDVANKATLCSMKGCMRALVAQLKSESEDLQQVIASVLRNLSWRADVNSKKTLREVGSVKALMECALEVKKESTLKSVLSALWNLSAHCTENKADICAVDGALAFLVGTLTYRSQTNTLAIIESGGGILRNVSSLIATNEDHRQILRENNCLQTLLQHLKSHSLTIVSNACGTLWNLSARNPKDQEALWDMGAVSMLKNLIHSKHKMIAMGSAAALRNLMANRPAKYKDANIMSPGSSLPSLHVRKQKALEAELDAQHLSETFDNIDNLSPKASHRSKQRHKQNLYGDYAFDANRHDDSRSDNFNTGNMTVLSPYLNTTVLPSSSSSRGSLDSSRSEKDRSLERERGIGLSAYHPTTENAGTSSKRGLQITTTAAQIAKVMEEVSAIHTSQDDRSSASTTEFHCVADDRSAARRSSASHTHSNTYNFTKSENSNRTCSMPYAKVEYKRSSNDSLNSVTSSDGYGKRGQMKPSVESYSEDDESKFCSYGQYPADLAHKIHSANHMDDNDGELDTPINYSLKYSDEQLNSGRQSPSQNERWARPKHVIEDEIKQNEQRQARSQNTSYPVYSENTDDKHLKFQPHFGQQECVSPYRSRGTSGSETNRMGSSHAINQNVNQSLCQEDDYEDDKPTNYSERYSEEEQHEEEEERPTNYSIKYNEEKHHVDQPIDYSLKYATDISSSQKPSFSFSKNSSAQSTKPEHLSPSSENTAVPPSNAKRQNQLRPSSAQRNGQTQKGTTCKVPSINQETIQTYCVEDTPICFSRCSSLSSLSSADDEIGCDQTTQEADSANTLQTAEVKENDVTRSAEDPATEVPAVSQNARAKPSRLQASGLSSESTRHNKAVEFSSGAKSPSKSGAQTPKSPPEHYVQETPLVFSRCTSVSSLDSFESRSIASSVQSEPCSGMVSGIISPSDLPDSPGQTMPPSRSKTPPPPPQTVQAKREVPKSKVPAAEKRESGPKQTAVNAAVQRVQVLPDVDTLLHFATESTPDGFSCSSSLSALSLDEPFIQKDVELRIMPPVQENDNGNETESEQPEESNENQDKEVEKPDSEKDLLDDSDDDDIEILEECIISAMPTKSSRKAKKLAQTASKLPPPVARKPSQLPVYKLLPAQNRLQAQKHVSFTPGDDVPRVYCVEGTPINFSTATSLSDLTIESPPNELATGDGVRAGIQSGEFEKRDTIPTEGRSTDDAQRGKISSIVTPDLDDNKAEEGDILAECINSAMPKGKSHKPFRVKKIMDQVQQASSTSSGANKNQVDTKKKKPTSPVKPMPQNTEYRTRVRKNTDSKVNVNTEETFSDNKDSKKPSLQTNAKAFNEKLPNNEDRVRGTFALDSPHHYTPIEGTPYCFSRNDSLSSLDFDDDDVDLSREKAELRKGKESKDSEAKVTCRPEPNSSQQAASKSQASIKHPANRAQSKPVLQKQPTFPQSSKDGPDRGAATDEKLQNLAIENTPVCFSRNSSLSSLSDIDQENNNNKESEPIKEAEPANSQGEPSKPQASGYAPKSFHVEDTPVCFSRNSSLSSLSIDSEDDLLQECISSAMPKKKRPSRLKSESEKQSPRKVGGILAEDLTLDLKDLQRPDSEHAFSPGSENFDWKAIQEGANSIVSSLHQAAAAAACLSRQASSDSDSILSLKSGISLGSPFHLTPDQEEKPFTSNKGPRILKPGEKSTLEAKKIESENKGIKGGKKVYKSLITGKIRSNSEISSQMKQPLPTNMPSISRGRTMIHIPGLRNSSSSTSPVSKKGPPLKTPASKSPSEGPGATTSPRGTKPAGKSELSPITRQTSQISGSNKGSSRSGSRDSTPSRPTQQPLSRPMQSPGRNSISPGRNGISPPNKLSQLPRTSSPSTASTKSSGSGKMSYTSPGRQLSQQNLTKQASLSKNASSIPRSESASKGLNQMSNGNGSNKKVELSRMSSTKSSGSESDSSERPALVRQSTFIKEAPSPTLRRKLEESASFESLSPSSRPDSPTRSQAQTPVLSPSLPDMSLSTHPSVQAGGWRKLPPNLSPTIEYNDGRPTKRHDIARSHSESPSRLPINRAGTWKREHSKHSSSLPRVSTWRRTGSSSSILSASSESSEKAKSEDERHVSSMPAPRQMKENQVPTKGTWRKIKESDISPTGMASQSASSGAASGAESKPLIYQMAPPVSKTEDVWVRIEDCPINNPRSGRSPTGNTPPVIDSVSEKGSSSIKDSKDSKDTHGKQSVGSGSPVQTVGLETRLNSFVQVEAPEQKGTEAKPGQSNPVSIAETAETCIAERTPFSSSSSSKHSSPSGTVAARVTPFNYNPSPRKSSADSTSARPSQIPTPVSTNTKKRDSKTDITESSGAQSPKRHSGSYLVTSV
UniProt P25054: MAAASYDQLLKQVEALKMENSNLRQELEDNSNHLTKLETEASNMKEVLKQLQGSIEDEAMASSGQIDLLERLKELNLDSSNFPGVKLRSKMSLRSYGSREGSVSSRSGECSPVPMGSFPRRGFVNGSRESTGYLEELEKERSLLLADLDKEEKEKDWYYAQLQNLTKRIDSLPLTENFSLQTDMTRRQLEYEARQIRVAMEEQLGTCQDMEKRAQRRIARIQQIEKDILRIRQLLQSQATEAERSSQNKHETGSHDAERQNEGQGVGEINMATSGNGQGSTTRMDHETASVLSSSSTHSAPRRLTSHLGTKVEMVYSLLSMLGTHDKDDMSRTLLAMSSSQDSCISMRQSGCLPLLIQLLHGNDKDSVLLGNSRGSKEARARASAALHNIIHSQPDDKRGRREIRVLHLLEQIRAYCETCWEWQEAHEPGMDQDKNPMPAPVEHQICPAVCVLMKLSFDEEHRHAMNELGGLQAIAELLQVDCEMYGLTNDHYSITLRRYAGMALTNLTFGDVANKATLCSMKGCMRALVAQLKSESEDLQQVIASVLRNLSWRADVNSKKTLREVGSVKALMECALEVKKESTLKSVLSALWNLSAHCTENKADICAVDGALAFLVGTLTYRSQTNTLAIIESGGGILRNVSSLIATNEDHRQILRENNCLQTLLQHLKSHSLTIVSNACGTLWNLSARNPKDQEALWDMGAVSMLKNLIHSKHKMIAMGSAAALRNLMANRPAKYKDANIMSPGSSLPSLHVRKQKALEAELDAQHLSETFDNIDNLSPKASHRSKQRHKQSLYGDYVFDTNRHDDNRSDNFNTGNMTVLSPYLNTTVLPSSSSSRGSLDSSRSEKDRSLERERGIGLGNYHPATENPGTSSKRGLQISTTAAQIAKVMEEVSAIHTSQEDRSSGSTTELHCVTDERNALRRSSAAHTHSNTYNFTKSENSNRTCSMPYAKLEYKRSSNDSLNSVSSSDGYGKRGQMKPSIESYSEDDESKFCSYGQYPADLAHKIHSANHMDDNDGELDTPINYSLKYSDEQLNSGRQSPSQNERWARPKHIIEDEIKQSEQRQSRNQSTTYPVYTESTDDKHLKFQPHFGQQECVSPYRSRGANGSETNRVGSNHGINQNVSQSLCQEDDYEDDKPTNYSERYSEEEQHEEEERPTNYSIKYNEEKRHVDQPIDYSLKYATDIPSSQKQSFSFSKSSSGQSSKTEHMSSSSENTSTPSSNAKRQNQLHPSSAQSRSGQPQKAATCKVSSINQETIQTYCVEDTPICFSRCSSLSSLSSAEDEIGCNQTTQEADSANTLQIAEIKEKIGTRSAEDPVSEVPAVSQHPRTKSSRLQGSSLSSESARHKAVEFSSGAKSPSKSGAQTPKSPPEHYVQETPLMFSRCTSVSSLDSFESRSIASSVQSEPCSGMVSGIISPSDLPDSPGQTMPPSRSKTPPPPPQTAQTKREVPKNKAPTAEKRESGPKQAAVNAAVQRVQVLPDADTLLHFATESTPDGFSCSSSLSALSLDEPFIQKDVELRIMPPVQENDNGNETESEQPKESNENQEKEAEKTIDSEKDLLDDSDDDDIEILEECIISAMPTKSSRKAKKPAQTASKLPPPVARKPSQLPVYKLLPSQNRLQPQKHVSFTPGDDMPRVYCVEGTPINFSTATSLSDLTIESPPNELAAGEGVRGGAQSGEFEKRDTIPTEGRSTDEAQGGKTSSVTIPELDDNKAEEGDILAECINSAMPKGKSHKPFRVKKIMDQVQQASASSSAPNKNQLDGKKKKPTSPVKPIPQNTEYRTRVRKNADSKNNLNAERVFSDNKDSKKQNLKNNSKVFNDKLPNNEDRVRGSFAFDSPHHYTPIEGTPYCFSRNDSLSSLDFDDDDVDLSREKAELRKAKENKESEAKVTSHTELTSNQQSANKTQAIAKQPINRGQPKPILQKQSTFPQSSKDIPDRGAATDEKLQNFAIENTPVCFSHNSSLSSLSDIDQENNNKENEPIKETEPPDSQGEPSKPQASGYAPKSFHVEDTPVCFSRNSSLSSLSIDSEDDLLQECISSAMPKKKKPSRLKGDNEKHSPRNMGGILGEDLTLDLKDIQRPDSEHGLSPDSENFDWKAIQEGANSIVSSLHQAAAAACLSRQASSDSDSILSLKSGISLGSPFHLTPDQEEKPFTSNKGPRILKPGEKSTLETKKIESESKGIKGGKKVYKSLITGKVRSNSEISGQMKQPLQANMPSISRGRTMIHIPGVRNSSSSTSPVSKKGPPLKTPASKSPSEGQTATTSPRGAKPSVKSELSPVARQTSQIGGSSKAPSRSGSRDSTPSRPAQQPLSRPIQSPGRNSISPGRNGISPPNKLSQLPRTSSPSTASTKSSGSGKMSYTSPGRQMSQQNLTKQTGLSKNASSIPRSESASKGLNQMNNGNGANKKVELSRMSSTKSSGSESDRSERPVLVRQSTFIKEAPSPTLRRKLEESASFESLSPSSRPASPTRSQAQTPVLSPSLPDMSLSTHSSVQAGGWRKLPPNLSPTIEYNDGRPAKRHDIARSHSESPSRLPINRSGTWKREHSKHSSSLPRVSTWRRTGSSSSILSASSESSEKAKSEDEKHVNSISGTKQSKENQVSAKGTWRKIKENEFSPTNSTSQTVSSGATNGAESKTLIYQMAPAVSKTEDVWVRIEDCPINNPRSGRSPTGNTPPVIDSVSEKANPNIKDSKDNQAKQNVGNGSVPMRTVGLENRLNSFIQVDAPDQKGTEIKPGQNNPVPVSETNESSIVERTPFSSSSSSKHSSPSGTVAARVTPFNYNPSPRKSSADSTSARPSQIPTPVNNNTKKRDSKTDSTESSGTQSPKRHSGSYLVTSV
UniProt P12367: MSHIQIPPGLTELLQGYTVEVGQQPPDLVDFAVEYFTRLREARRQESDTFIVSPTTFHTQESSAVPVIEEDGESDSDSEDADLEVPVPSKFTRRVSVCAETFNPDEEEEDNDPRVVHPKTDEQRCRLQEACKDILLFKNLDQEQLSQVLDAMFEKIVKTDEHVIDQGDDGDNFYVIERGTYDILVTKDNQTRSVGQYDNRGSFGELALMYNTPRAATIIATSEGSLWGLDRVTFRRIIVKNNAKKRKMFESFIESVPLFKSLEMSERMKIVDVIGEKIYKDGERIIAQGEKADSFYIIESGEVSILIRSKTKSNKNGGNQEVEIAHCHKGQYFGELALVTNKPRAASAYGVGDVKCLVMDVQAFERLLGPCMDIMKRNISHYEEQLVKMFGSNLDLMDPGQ
UniProt P13861: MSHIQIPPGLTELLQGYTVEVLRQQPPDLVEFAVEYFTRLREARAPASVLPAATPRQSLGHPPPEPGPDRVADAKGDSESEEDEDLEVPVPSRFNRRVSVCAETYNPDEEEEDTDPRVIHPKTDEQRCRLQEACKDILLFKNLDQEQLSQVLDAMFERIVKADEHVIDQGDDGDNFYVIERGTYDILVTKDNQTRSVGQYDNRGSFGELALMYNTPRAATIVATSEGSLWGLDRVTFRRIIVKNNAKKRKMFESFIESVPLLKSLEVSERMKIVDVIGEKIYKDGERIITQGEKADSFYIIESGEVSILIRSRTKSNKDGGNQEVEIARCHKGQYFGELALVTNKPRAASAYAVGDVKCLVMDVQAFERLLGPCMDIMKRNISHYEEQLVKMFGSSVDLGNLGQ

What was measured:
[1] = target: adenomatous polyposis coli (APC) (mouse (endogenous in RAW 264.7)) (UniProt Q61315); experiment: co-IP; endogenous proteins of RAW 264.7 lysate; IP with rabbit antibodies against APC or against PKA cat (control rabbit IgG), 2 h at 4 °C, protein G magnetic beads; binding buffer 20 mM HEPES pH 7.9, 30 mM MgCl2, 10% glycerol, 0.2% Nonidet P-40; immunoblot
[2] = target: adenomatous polyposis coli (APC), human (human (endogenous in primary macrophages)) (UniProt P25054); experiment: co-IP; protein extracts of primary human macrophages; IP with IgG against APC (control IgG), immunoblot for PKA RII
[3] = target: adenomatous polyposis coli (APC) (mouse (endogenous in RAW 264.7)) (UniProt Q61315); experiment: co-IP; lysate of RAW 264.7 cells transduced with retrovirus for RII HA-tagged or ΔD/D RII HA-tagged; IP with rabbit IgG against APC (control rabbit IgG), immunoblot for the HA-tag

Substance: PKA regulatory subunit RII (from UniProt P12367 1-401)
- binding [1]: binds

Substance: PKA regulatory subunit RII, human (from UniProt P13861 1-404)
- binding [2]: binds

Substance: RII HA-tagged (from UniProt P12367 1-401)
- binding [3]: binds
